Laboratory results published in patent US8389575B2, “Control of enzymatic peracid generation” (E.I. du Pont de Nemours and Company, priority 2008, dated 2013).

What was measured:
[1] = Peracetic acid production by Thermotoga maritima MSB8 perhydrolase, control by bicarbonate buffer concentration; format: biochemical; conditions: 100 mM triacetin
Method: A cell extract of a transformant expressing perhydrolase from Thermotoga maritima MSB8 (KLP18/pSW207) was prepared by passing a suspension of cell paste (20 wt % wet cell weight) in 0.05 M potassium phosphate buffer (pH 7.0) containing dithiothreitol (1 mM) twice through a French press having a working pressure of 16,000 psi (˜110 MPa). The crude extract was then centrifuged at 20,000×g to remove cellular debris, producing a clarified cell extract that was assayed for total soluble protein (Bicinchoninic Acid Kit for Protein Determination, Sigma Aldrich catalog #BCA1-KT). The clarified extract was heated for 20 min at 75° C., followed immediately by cooling in an ice/water bath. The resulting mixture was centrifuged to remove precipitated protein, and the supernatant collected and assayed for total soluble protein as before. […] The supernatant was frozen in dry ice and stored at −80° C.
Reactions (2 mL total volume) containing triacetin, hydrogen peroxide and heat-treated, centrifuged cell extract supernatant (prepared as described above) were run at 25° C. using sodium bicarbonate buffer concentrations listed in Tables 9 and 10. A control reaction for each reaction condition was run to determine the concentration of peracetic acid produced by chemical perhydrolysis of triacetin by hydrogen peroxide in the absence of added extract protein. Determination of the concentration of peracetic acid in the reaction mixtures was performed according to the method described by Karst et al., supra. The peracetic acid concentrations produced in 1 min, 5 min and 30 min using either 250 mM or 100 mM hydrogen peroxide are listed in Table 9 and Table 10.

[2] = Peracetic acid production and reaction pH over time, Thermotoga maritima MSB8 perhydrolase, selection of buffer, reactant and perhydrolase concentrations; format: biochemical
Method: Reactions (10 mL total volume) containing triacetin (100 mM), hydrogen peroxide (100 mM or 250 mM) and heat-treated, centrifuged cell extract supernatant (35 to 100 μg total heat-treated extract protein/mL, prepared as described in Example 13) prepared from an E. coli transformant expressing perhydrolase from Thermotoga maritima MSB8 (KLP18/pSW207) in sodium citrate (50 mM, pH 6.5) buffer, or in sodium bicarbonate buffer (1 mM to 5 mM, initial pH as indicated in Table 12), or in water without added buffer were run at 25° C. A control reaction for each reaction condition was run to determine the concentration of peracetic acid produced by chemical perhydrolysis of triacetin by hydrogen peroxide in the absence of added extract protein. Determination of the concentration of peracetic acid in the reaction mixtures was performed according to the method described by Karst et al., supra. The peracetic acid concentration produced at predetermined reaction times is listed in Table 11, and the corresponding reaction pH at each reaction time is listed in Table 12.

[3] = bicarbonate, 1 mM, H2O2 100 mM, total protein 75 μg/mL, initial pH 6.0
[4] = bicarbonate, 1 mM, H2O2 100 mM, total protein 100 μg/mL, initial pH 6.0
[5] = bicarbonate, 1 mM, H2O2 250 mM, total protein 35 μg/mL, initial pH 6.0
[6] = bicarbonate, 1 mM, H2O2 250 mM, total protein 50 μg/mL, initial pH 6.0
[7] = bicarbonate, 2.5 mM, H2O2 100 mM, total protein 50 μg/mL, initial pH 6.5
[8] = bicarbonate, 5 mM, H2O2 100 mM, total protein 50 μg/mL, initial pH 6.5
[9] = citrate, 50 mM, H2O2 100 mM, total protein 50 μg/mL, initial pH 6.5
[10] = no added buffer, H2O2 250 mM, total protein 75 μg/mL, initial pH 5.0
[11] = no added buffer, H2O2 250 mM, total protein 100 μg/mL, initial pH 5.0

B1: Thermotoga maritima MSB8 perhydrolase: acetyl xylan esterase with perhydrolase activity from Thermotoga maritima MSB8 (SEQ ID NO: 16), cell extract of E. coli KLP18/pSW207 (protein, listed as Thermotoga maritima)
chain: MAFFDLPLEELKKYRPERYEEKDFDEFWEETLAESEKFPLDPVFERMESHLKTVEAYDVTFSGYRGQRIKGWLLVPKLEEEKLPCVVQYIGYNGGRGFPHDWLFWPSMGYICFVMDTRGQGSGWLKGDTPDYPEGPVDPQYPGFMTRGILDPRTYYYRRVFTDAVRAVEAAASFPQVDQERIVIAGGSQGGGIALAVSALSKKAKALLCDVPFLCHFRRAVQLVDTHPYAEITNFLKTHRDKEEIVFRTLSYFDGVNFAARAKIPALFSVGLMDNICPPSTVFAAYNYYAGPKEIRIYPYNNHEGGGSFQAVEQVKFLKKLFEKG
pH, 1 min ([1]; NaHCO3 0 mM, initial pH 5.0, 1 min, 100 mM H2O2, 50 μg/mL heated extract total protein): 5.0 | pH, 1 min ([1]; NaHCO3 0 mM, initial pH 5.0, 1 min, 250 mM H2O2, 50 μg/mL heated extract total protein): 5.0 | pH, 5 min ([1]; NaHCO3 0 mM, initial pH 5.0, 5 min, 100 mM H2O2, 50 μg/mL heated extract total protein): 5.0 | pH, 5 min ([1]; NaHCO3 0 mM, initial pH 5.0, 5 min, 250 mM H2O2, 50 μg/mL heated extract total protein): 5.0 | pH, 30 min ([1]; NaHCO3 0 mM, initial pH 5.0, 30 min, 100 mM H2O2, 50 μg/mL heated extract total protein): 5.0 | pH, 30 min ([1]; NaHCO3 0 mM, initial pH 5.0, 30 min, 250 mM H2O2, 50 μg/mL heated extract total protein): 5.0 | pH, 1 min ([1]; NaHCO3 1.0 mM, initial pH 6.0, 1 min, 100 mM H2O2, 50 μg/mL heated extract total protein): 5.0 | pH, 1 min ([1]; NaHCO3 1.0 mM, initial pH 6.0, 1 min, 250 mM H2O2, 50 μg/mL heated extract total protein): 5.0 | pH, 5 min ([1]; NaHCO3 1.0 mM, initial pH 6.0, 5 min, 100 mM H2O2, 50 μg/mL heated extract total protein): 5.0 | pH, 5 min ([1]; NaHCO3 1.0 mM, initial pH 6.0, 5 min, 250 mM H2O2, 50 μg/mL heated extract total protein): 5.0 | pH, 30 min ([1]; NaHCO3 1.0 mM, initial pH 6.0, 30 min, 100 mM H2O2, 50 μg/mL heated extract total protein): 5.0 | pH, 30 min ([1]; NaHCO3 1.0 mM, initial pH 6.0, 30 min, 250 mM H2O2, 50 μg/mL heated extract total protein): 5.0 | pH, 1 min ([1]; NaHCO3 2.5 mM, initial pH 6.5, 1 min, 100 mM H2O2, 50 μg/mL heated extract total protein): 5.7 | pH, 1 min ([1]; NaHCO3 2.5 mM, initial pH 6.5, 1 min, 250 mM H2O2, 50 μg/mL heated extract total protein): 5.5 | pH, 5 min ([1]; NaHCO3 2.5 mM, initial pH 6.5, 5 min, 100 mM H2O2, 50 μg/mL heated extract total protein): 5.3 | pH, 5 min ([1]; NaHCO3 2.5 mM, initial pH 6.5, 5 min, 250 mM H2O2, 50 μg/mL heated extract total protein): 5.3 | pH, 30 min ([1]; NaHCO3 2.5 mM, initial pH 6.5, 30 min, 100 mM H2O2, 50 μg/mL heated extract total protein): 5.0 | pH, 30 min ([1]; NaHCO3 2.5 mM, initial pH 6.5, 30 min, 250 mM H2O2, 50 μg/mL heated extract total protein): 5.0 | pH, 1 min ([1]; NaHCO3 5.0 mM, initial pH 6.5, 1 min, 100 mM H2O2, 50 μg/mL heated extract total protein): 6.0 | pH, 1 min ([1]; NaHCO3 5.0 mM, initial pH 6.5, 1 min, 250 mM H2O2, 50 μg/mL heated extract total protein): 6.0 | pH, 5 min ([1]; NaHCO3 5.0 mM, initial pH 6.5, 5 min, 100 mM H2O2, 50 μg/mL heated extract total protein): 5.7 | pH, 5 min ([1]; NaHCO3 5.0 mM, initial pH 6.5, 5 min, 250 mM H2O2, 50 μg/mL heated extract total protein): 5.7 | pH, 30 min ([1]; NaHCO3 5.0 mM, initial pH 6.5, 30 min, 100 mM H2O2, 50 μg/mL heated extract total protein): 5.0 | pH, 30 min ([1]; NaHCO3 5.0 mM, initial pH 6.5, 30 min, 250 mM H2O2, 50 μg/mL heated extract total protein): 5.0 | pH, 1 min ([1]; NaHCO3 10 mM, initial pH 7.0, 1 min, 250 mM H2O2, 50 μg/mL heated extract total protein): 6.3 | pH, 5 min ([1]; NaHCO3 10 mM, initial pH 7.0, 5 min, 250 mM H2O2, 50 μg/mL heated extract total protein): 5.5 | pH, 30 min ([1]; NaHCO3 10 mM, initial pH 7.0, 30 min, 250 mM H2O2, 50 μg/mL heated extract total protein): 5.0 | pH, 1 min ([1]; NaHCO3 10 mM, initial pH 8.1, 1 min, 100 mM H2O2, 50 μg/mL heated extract total protein): 6.5 | pH, 5 min ([1]; NaHCO3 10 mM, initial pH 8.1, 5 min, 100 mM H2O2, 50 μg/mL heated extract total protein): 6.0 | pH, 30 min ([1]; NaHCO3 10 mM, initial pH 8.1, 30 min, 100 mM H2O2, 50 μg/mL heated extract total protein): 5.3 | pH, 1 min ([1]; NaHCO3 25 mM, initial pH 8.1, 1 min, 100 mM H2O2, 50 μg/mL heated extract total protein): 7.5 | pH, 1 min ([1]; NaHCO3 25 mM, initial pH 8.1, 1 min, 250 mM H2O2, 50 μg/mL heated extract total protein): 7.0 | pH, 5 min ([1]; NaHCO3 25 mM, initial pH 8.1, 5 min, 100 mM H2O2, 50 μg/mL heated extract total protein): 6.8 | pH, 5 min ([1]; NaHCO3 25 mM, initial pH 8.1, 5 min, 250 mM H2O2, 50 μg/mL heated extract total protein): 6.5 | pH, 30 min ([1]; NaHCO3 25 mM, initial pH 8.1, 30 min, 100 mM H2O2, 50 μg/mL heated extract total protein): 6.0 | pH, 30 min ([1]; NaHCO3 25 mM, initial pH 8.1, 30 min, 250 mM H2O2, 50 μg/mL heated extract total protein): 6.0 | pH, 1 min [2, 3]: 5.0 | pH, 5 min [2, 3]: 5.0 | pH, 30 min [2, 3]: 5.0 | pH, 2 h [2, 3]: 5.0 | pH, 18 h [2, 3]: 4.5 | pH, 1 min [2, 4]: 5.0 | pH, 5 min [2, 4]: 5.0 | pH, 30 min [2, 4]: 5.0 | pH, 2 h [2, 4]: 5.0 | pH, 18 h [2, 4]: 4.5 | pH, 1 min [2, 5]: 5.5 | pH, 5 min [2, 5]: 5.0 | pH, 30 min [2, 5]: 5.0 | pH, 2 h [2, 5]: 5.0 | pH, 18 h [2, 5]: 5.0 | pH, 1 min [2, 6]: 5.0 | pH, 5 min [2, 6]: 5.0 | pH, 30 min [2, 6]: 5.0 | pH, 2 h [2, 6]: 5.0 | pH, 18 h [2, 6]: 5.0 | pH, 1 min [2, 7]: 5.7 | pH, 5 min [2, 7]: 5.0 | pH, 30 min [2, 7]: 5.0 | pH, 2 h [2, 7]: 5.0 | pH, 18 h [2, 7]: 5.0 | pH, 1 min [2, 8]: 6.0 | pH, 5 min [2, 8]: 5.5 | pH, 30 min [2, 8]: 5.0 | pH, 2 h [2, 8]: 5.0 | pH, 18 h [2, 8]: 5.0 | pH, 1 min [2, 9]: 6.5 | pH, 5 min [2, 9]: 6.5 | pH, 30 min [2, 9]: 6.2 | pH, 2 h [2, 9]: 6.0 | pH, 18 h [2, 9]: 6.0 | pH, 1 min [2, 10]: 5.0 | pH, 5 min [2, 10]: 5.0 | pH, 30 min [2, 10]: 5.0 | pH, 2 h [2, 10]: 5.0 | pH, 18 h [2, 10]: 4.5 | pH, 1 min [2, 11]: 5.0 | pH, 5 min [2, 11]: 5.0 | pH, 30 min [2, 11]: 5.0 | pH, 2 h [2, 11]: 5.0 | pH, 18 h [2, 11]: 4.5
